Values joined by “and” are separate entries in the source; they are usually repeats but may differ in a detail not shown here. Equal values may be shown once. The list shows a part of the results. Further columns of the screen follow, without active or inactive calls. The list favours compounds with an active or inconclusive main result. Words in brackets tell the shape of the fitted curve; partial curves, single points and poor fits give uncertain potencies.
Test: qHTS Assay for Lipid Storage Modulators in Drosophila S3 Cells;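 for cell number change: cells counted by Cell Tracker Red CMTPX staining in the red channel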
Conditions: BODIPY lipid droplet fluorescence, 18-24 h; for cell number change: measured here: cell count max response, cells fed with added oleic acid
Summary of the method: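 Laser-scanning cytometry quantifies lipid droplet accumulation (500–530 nm total intensity; droplet/cell object ratio) in oleic acid-fed (400 uM added) Drosophila S3 cells treated with a concentration series. 20 uM Triacsin C defined 100% inhibition.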

[1] = measured here: lipid fluorescence (Fed channel) AC50, cells fed with added oleic acid
[2] = measured here: cell number channel AC50, cells fed with added oleic acid

c1ccc(CCNc2c3c(nc4ncnn24)CCC3)cc1
cell number change: -27.9%

Cc1ccsc1C(C(=O)NCc1ccccc1)N(C(=O)c1csnn1)c1ccccc1 (configuration not stated)
cell number change: 18.9% | AC50 [1]: 6.51 µM [falling, single point]

CCC(=O)NN1CCN(c2ccncc2S(=O)(=O)N2CCCCC2)CC1
cell number change: 15.5% | AC50 [1]: 5.8 µM [rising, single point]

CC(NC(=O)CNC(=O)Cc1cccc2ccccc12)c1ccc(S(N)(=O)=O)cc1 (configuration not stated)
cell number change: 46.5% | AC50 [2]: 7.31 µM [rising, partial curve, poor fit]

CC(C)CC(=O)N(c1nnc(-c2cccnc2)s1)C1CCCC1
cell number change: -14.6% | AC50 [1]: 29.1 µM [falling, single point]

C=CCn1c(SCC(=O)Nc2ccc(NC(C)=O)cc2)nc2sc(C)c(C)c2c1=O
cell number change: -58.7% | AC50 [2]: 32.6 µM [falling, partial curve] | AC50 [1]: 10.3 µM [falling, partial curve, poor fit]

N#Cc1ccccc1S(=O)(=O)N1CCN(CC(=O)Nc2ccccc2C(=O)NC2CC2)CC1
cell number change: -7.14% | AC50 [1]: 0.0291 µM [falling, full curve, poor fit]

O=C(Nc1ncc([N+](=O)[O-])s1)c1cccs1
cell number change: -61.3% and -1.74% | AC50 [2]: 16.4 µM [falling, partial curve] | AC50 [1]: 29.1 µM [falling, single point] and 23.1 µM [falling, single point]

CCN(c1cccc(C)c1)S(=O)(=O)c1cccc(C(=O)O)c1
cell number change: -100% | AC50 [2]: 23.1 µM [falling, partial curve]

Cc1ccc2[nH]c(C(=O)N3CCN(C=O)CC3)cc2c1
cell number change: -3.7%

COc1cc([N+](=O)[O-])ccc1NC(=O)CSc1nc2ccccc2n1-c1ccccc1
cell number change: 7.33% | AC50 [1]: 8.2 µM [rising, partial curve]

Cc1ccc(C(=O)N[C@H](C(=O)NC2CCCCCCC2)C(C)C)cc1
cell number change: 4.47% | AC50 [1]: 1.84 µM [falling, partial curve]

Cc1cccc(C(=O)N/N=C/c2ccc[nH]2)c1
cell number change: -5.35% | AC50 [2]: 0.651 µM [falling, full curve] | AC50 [1]: 0.651 µM [falling, partial curve, poor fit]

COc1cc(C(=O)O[C@H]2CC(C)=CC[C@@]3(C)CC[C@@](O)(C(C)C)[C@H]23)ccc1O
cell number change: -27.9% | AC50 [1]: 10.3 µM [falling, partial curve]

O=C1CCC(C(=O)OC(C(=O)c2c[nH]c3ccccc23)c2ccccc2)=NN1 (configuration not stated)
cell number change: -80.8% | AC50 [2]: 32.6 µM [falling, partial curve, poor fit] | AC50 [1]: 4.11 µM [falling, partial curve]

O=C(O)CCCN1C(=O)C2C3CCC(O3)C2C1=O (configuration not stated)
cell number change: -9.81% | AC50 [1]: 0.82 µM [falling, single point]

CC1C(=O)Nc2ccccc2N1C(=O)c1ccccc1 (configuration not stated)
AC50 [1]: 4.61 µM [rising, single point]

Cc1ccc(CN(C)CCc2ccccn2)cc1
cell number change: 20.1% | AC50 [2]: 0.0291 µM [rising, full curve, poor fit] | AC50 [1]: 3.26 µM [falling, full curve, poor fit]

Cc1oc(-c2cccc(Cl)c2)nc1CS(=O)(=O)CC(=O)NC1CCCC1
cell number change: 10.4%

COc1ccc(NC(=O)/C(C#N)=C/c2ccc(OCCN3CCOCC3)c(OC)c2)c(OC)c1
cell number change: 13.1% | AC50 [1]: 0.092 µM [rising, full curve, poor fit]

CO/N=C(/CS(=O)Cc1ccccc1Cl)c1ccc(Cl)cc1Cl (configuration not stated)
cell number change: -24.4% | AC50 [1]: 29.1 µM [falling, single point]

COc1ccc(NC(=O)CCNS(=O)(=O)c2ccc3c(c2)c(=O)n(C)c(=O)n3C)cc1
cell number change: -14.6%

CCOc1cc(/C=C(\C#N)C(=O)NCC2CCCO2)ccc1OCC(N)=O (configuration not stated)
cell number change: 2.77% | AC50 [1]: 7.31 µM [rising, single point]

CCOC(=O)C(NC(=O)CC)(N1CCc2ccccc2C1)C(F)(F)F (configuration not stated)
cell number change: -9.57% | AC50 [2]: 6.51 µM [falling, single point]

CCCn1c(N)c(N(CCOC)C(=O)c2cc3c(s2)CCC(CC)C3)c(=O)[nH]c1=O (configuration not stated)
cell number change: 16.8% | AC50 [1]: 0.103 µM [falling, full curve, poor fit]

CCn1c2ccccc2c2nnc(SCCCn3c(=O)[nH]c4ccccc43)nc21
cell number change: -7.93% | AC50 [1]: 0.291 µM [rising, partial curve, poor fit]

C/C(N)=C(/C#N)C(=O)CN1C(=O)NC(Cc2c[nH]c3ccccc23)C1=O (configuration not stated)
cell number change: 18.2% | AC50 [1]: 0.206 µM [rising, full curve, poor fit]

O=C(O)c1ccc(-c2nc(-c3ccccc3)c(-c3ccccc3)[nH]2)cc1
cell number change: -6.61% | AC50 [1]: 18.4 µM [rising, partial curve]

O=C(OCC(=O)N1CCOCC1)c1ccccc1OCc1ccccc1
cell number change: -6.22% | AC50 [1]: 25.9 µM [rising, single point]

CCn1c(SCC(=O)Nc2ccc3c(c2)OCCO3)nnc1-c1cccnc1
AC50 [1]: 0.082 µM [falling, partial curve, poor fit]

CCOc1ccccc1NC(=O)NC1(C(=O)NCC2CCCO2)CCCCC1 (configuration not stated)
cell number change: 14.5% | AC50 [1]: 20.6 µM [rising, single point]

Cc1ccc(OCC(=O)N/N=C/c2cn(C)c3ccccc23)cc1
cell number change: 5.66% | AC50 [1]: 3.66 µM [falling, single point]

CCn1c(CC(=O)Nc2ccccc2Cl)nnc1SCC(=O)NC1CCCC1
cell number change: 7.89%

Cc1ccc(C(=O)/C=C/NNC(=O)c2ccccc2O)cc1
cell number change: -3.16% | AC50 [1]: 29.1 µM [rising, single point]

CCN=C1SC(C(N)=O)CC(=O)N1CC (configuration not stated)
cell number change: -3.44% | AC50 [1]: 2.59 µM [falling, full curve, poor fit]

O=C(Nc1nnc(S(=O)(=O)N2CCCCC2)s1)c1ccccc1Br
cell number change: 13.3% | AC50 [1]: 3.66 µM [rising, full curve]

CCn1cc(C2=NOC(C(=O)Nc3cc(C)nn3-c3ccccc3)C2)c(C)n1 (configuration not stated)
AC50 [2]: 0.411 µM [rising, partial curve, poor fit] | AC50 [1]: 0.461 µM [rising, full curve, poor fit]
